Measurements taken from the supplement of paper PMC10849652.
This is one part of the list.

By UniProt entry, the sequences of proteins in these tests, tags left out. Where a name states a change or a piece, a line headed by the entry shows the natural chain unless it says otherwise.
UniProt Q14257: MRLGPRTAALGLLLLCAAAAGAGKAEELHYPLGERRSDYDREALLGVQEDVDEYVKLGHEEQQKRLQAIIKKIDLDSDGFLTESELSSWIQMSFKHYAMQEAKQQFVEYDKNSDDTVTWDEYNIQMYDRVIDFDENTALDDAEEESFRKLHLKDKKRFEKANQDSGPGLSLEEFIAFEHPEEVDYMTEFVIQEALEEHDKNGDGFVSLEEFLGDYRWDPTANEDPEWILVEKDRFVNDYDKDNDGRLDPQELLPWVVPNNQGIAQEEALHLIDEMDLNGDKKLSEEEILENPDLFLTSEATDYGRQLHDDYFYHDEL
UniProt P98175: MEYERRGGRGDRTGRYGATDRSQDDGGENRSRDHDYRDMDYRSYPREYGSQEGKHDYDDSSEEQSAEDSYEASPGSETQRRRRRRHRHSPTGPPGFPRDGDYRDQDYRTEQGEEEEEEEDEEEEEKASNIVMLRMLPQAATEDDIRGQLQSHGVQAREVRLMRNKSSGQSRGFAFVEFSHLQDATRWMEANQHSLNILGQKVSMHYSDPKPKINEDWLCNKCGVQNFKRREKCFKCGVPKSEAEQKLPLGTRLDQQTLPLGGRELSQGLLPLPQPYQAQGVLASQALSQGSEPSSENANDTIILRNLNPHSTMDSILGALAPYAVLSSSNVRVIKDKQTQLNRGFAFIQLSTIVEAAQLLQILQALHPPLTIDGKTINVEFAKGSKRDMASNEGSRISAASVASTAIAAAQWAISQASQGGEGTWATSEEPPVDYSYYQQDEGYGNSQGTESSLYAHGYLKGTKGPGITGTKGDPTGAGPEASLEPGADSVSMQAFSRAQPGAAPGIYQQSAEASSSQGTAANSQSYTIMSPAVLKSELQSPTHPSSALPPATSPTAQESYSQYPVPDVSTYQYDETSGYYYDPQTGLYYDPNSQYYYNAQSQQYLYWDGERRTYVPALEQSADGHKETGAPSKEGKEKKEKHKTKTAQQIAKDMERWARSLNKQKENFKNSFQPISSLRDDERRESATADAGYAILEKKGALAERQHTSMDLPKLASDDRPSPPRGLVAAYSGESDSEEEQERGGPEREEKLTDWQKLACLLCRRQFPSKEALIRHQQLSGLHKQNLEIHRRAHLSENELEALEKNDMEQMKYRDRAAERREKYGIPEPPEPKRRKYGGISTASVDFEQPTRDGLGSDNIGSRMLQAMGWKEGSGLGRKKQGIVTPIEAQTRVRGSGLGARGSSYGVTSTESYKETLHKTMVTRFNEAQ
UniProt Q15283: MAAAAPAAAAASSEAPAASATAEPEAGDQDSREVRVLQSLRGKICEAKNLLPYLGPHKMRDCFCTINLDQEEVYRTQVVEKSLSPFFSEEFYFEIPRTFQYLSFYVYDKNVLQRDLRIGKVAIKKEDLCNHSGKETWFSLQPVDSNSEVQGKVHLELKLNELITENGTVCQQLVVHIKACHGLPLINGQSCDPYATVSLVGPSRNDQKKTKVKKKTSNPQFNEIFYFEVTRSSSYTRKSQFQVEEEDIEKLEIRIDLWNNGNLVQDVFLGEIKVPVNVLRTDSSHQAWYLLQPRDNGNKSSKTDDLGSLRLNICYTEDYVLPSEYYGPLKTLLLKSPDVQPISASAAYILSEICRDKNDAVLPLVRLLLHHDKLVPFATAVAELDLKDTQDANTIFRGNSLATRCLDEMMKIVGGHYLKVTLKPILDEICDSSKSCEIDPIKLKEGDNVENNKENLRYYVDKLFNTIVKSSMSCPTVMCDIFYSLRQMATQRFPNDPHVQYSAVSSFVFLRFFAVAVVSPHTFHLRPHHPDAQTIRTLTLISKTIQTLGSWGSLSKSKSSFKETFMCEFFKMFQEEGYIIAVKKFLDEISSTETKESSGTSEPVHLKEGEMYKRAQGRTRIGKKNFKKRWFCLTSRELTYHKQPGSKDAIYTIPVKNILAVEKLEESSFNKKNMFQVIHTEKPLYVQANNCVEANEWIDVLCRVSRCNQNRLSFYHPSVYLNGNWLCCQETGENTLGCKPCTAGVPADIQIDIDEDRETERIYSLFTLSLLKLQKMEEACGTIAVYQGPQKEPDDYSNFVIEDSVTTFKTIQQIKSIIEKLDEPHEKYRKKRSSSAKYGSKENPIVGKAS
UniProt P62877, whole entry, looked up: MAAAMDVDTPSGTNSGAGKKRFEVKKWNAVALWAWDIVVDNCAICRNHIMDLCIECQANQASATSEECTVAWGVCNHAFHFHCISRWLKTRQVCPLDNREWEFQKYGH
UniProt P35250, whole entry, looked up: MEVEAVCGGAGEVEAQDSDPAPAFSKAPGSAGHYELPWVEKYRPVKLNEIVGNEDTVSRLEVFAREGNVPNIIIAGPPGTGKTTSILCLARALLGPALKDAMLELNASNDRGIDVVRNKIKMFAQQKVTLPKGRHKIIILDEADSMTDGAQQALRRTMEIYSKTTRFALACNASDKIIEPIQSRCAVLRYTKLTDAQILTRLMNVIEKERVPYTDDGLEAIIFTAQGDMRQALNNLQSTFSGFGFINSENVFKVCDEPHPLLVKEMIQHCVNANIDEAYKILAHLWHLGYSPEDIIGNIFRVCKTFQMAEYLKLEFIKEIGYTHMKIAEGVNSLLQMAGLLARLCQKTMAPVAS
UniProt Q969G6: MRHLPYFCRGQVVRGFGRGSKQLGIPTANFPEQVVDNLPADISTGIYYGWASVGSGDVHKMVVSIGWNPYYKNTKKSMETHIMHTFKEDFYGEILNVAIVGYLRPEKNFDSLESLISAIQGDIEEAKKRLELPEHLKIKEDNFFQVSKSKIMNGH
UniProt P82980: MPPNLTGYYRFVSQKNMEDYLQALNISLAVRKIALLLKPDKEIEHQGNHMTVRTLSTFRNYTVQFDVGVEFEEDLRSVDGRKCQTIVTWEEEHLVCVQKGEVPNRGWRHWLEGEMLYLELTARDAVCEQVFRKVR
UniProt Q9Y580: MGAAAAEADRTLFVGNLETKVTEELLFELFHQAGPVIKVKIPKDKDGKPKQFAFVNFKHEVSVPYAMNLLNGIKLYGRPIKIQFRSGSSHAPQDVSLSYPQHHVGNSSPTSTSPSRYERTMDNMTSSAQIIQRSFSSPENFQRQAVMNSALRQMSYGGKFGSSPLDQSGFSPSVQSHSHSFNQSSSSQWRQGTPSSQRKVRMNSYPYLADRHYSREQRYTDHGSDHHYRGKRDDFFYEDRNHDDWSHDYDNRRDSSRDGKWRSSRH
UniProt P78509: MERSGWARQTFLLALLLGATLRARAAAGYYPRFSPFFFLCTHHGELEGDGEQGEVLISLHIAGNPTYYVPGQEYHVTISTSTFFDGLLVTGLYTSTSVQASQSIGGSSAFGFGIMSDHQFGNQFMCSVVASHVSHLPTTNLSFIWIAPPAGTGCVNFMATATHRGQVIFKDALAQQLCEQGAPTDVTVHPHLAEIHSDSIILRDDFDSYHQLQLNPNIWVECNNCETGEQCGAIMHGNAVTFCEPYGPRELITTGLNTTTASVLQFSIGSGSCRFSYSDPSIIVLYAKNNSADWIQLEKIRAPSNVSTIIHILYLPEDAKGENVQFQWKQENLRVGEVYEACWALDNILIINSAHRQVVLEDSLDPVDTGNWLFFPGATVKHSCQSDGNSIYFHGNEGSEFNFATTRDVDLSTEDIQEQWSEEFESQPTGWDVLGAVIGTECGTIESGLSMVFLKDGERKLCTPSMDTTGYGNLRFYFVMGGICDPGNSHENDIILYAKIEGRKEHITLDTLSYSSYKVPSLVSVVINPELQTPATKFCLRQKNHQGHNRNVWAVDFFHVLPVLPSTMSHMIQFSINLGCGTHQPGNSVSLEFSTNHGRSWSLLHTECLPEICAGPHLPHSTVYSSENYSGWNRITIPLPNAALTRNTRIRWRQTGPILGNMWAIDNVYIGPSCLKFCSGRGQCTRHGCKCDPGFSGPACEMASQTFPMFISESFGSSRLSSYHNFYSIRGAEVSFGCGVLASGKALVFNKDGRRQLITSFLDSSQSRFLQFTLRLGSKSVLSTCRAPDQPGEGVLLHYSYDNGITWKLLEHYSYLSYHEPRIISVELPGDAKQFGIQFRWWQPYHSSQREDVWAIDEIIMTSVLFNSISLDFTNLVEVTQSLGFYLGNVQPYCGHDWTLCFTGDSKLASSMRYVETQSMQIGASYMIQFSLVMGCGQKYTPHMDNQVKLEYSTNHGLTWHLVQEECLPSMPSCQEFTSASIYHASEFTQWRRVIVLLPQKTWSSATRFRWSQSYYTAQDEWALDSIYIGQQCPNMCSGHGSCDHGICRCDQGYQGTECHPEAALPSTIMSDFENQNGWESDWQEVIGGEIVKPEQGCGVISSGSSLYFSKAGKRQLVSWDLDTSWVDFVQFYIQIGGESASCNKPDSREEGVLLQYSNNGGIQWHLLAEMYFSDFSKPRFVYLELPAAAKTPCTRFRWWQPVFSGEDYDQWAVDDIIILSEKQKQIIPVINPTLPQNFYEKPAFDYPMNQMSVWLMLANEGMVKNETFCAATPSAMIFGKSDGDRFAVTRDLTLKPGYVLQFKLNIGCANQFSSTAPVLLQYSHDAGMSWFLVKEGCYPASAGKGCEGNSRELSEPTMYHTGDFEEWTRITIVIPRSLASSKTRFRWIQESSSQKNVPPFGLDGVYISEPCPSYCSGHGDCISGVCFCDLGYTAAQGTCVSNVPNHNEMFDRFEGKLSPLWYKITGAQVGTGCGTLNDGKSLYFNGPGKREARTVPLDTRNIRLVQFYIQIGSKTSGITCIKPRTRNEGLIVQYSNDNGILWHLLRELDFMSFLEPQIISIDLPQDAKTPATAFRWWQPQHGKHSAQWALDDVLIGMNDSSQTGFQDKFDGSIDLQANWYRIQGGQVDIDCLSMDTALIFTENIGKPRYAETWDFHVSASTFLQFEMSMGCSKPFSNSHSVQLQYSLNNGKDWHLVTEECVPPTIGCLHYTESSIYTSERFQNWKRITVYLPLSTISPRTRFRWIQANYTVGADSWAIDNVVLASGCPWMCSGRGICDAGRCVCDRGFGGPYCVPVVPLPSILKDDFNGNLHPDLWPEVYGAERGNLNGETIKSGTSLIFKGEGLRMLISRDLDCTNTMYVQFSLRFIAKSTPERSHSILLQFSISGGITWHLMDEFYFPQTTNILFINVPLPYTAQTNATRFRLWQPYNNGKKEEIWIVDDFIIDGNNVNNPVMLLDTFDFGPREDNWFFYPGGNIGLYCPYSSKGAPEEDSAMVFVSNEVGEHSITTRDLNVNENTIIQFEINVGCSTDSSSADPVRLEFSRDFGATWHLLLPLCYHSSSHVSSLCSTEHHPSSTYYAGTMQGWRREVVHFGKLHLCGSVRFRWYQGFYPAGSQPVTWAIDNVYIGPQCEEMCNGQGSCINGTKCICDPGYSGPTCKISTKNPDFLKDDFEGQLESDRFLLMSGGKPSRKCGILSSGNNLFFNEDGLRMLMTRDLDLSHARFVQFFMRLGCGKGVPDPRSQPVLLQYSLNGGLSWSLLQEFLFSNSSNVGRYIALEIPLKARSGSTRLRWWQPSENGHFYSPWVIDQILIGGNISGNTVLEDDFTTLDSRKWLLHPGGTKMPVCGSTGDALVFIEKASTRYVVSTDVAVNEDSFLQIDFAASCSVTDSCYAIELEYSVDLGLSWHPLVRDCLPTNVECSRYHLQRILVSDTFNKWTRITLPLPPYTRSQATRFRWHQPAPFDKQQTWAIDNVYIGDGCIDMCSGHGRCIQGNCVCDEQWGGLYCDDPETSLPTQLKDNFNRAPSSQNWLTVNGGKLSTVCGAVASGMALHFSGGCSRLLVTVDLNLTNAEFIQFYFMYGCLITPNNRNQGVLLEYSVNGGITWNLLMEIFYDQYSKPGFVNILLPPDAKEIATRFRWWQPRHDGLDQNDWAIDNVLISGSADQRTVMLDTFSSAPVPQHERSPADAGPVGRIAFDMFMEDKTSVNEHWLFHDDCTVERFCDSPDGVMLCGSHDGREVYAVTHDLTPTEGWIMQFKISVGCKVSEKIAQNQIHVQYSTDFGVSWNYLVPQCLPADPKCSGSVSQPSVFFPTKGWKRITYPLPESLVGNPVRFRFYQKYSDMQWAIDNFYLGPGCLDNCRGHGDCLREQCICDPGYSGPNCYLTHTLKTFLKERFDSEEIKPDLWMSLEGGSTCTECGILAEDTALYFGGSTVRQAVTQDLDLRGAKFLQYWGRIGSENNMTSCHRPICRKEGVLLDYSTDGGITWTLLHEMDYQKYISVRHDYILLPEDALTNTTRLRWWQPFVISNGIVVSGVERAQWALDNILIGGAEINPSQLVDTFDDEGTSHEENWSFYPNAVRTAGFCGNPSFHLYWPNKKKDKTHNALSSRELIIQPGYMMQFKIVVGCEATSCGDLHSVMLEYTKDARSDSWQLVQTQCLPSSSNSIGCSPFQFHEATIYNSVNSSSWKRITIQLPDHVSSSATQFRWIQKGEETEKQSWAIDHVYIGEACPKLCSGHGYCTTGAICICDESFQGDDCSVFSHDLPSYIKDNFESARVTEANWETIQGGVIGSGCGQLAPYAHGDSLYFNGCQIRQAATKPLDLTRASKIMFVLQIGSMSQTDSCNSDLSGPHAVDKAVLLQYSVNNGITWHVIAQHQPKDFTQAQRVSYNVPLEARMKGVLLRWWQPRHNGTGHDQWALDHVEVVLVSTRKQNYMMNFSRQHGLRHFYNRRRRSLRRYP

Legend:
Experiment in all cases: log2 fold change, soluble protein after heating vs DMSO (PISA); higher = thermal stabilisation; K562 lysate, 10 uM; active = over 0.2 and 3.5 SD of the protein, either way, in both replicates (recomputed)
[1] = compound: Cc1cn(-c2cc(NC(=O)c3ccc(C)c(Nc4nccc(-c5cccnc5)n4)c3)cc(C(F)(F)F)c2)cn1 [nilotinib]
In short: (§1)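 Following dounce homogenisation of K562 pellets in PBS pH 7.4 with 1 mM MgCl2, crude extract at 1 mg/mL protein was incubated for 30 min with 10 μM compound. Aliquots were then heated for 3 min over 48°C-58°C and pooled, NP-40 was added to 0.5% at 4°C, and soluble protein was recovered as the supernatant at 21,000xg for 90 min. Channel-sum-equalised TMTpro 16plex LC-MS/MS quantified this protein. Each value, from duplicates, is a log-two fold change in thermal stability relative to solvent controls.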

[2] = compound: Cc1nc(Nc2n[nH]c3c2CN(C(=O)N[C@H](CN(C)C)c2ccccc2)C3(C)C)c2sccc2n1
In short: as §1

[3] = compound: Cc1nc(Nc2ncc(C(=O)Nc3c(C)cccc3Cl)s2)cc(N2CCN(CCO)CC2)n1 [dasatinib]
In short: as §1

[4] = compound: Cc1ncc(-c2ccnc(Nc3ccc(S(C)(=O)=O)cc3)n2)n1C(C)C
In short: as §1

[5] = compound: Cn1cc(-c2ccc3c(c2)CCN3C(=O)Cc2cccc(C(F)(F)F)c2)c2c(N)ncnc21
In short: as §1

[6] = compound: Cn1cc(CNCC2CCN(c3ncc(C(=O)NO)cn3)CC2)c2ccccc21 [quisinostat]
In short: as §1

[7] = compound: Cn1cncc1[C@@](N)(c1ccc(Cl)cc1)c1ccc2c(c1)c(-c1cccc(Cl)c1)cc(=O)n2C [tipifarnib]
In short: as §1

[8] = compound: NC(=O)Nc1cc(-c2cccc(F)c2)sc1C(=O)N[C@H]1CCCNC1
In short: as §1

[9] = compound: NC(=O)c1cnc(N[C@@H]2CCCC[C@@H]2N)nc1Nc1cccc(-n2nccn2)c1
In short: as §1

[10] = compound: NC1(c2ccc(-c3nc4ccn5c(=O)[nH]nc5c4cc3-c3ccccc3)cc2)CCC1
In short: as §1

Measured: log2 fold change

RETREG3 (UniProt Q86VR2)
inactive: [1] -0.006 | [2] -0.015 | [3] -0.016 | [4] 0.02 | [5] 0.039 | [6] -0.147 | [7] -0.097 | [8] 0.044 | [9] -0.016 | [10] -0.081

RCN2 isoform 2 (UniProt Q14257)
inactive: [1] 0.033 | [2] -0.007 | [3] -0.026 | [4] 0.086 | [5] 0.025 | [6] -0.003 | [7] 0.068 | [8] 0.043 | [9] -0.019 | [10] 0.035

RBM4 (UniProt Q9BWF3)
inactive: [1] -0.086 | [2] -0.011 | [3] 0.032 | [4] 0.029 | [5] 0.03 | [6] 0.033 | [7] -0.067 | [8] 0.034 | [9] 0.046 | [10] 0.029

RBBP4 (UniProt Q09028)
inactive: [1] 0.054 | [2] 0.062 | [3] -0.005 | [4] 0.059 | [5] -0.029 | [6] -0.041 | [7] 0.012 | [8] -0.018 | [9] -0.034 | [10] -0.019

RBM10 isoform 5 (UniProt P98175)
inactive: [1] -0.019 | [2] 0 | [3] 0.008 | [4] 0.01 | [5] -0.012 | [6] 0.02 | [7] -0.02 | [8] -0.029 | [9] 0.013 | [10] 0.017

RBM25 (UniProt P49756)
inactive: [1] -0.009 | [2] 0.019 | [3] -0.106 | [4] -0.054 | [5] -0.009 | [6] -0.076 | [7] -0.043 | [8] 0.03 | [9] 0.015 | [10] 0.09

RARS (UniProt P54136)
inactive: [1] 0.004 | [2] 0 | [3] -0.074 | [4] -0.017 | [5] 0.038 | [6] -0.017 | [7] 0.006 | [8] 0.049 | [9] 0.015 | [10] -0.023

RBL1 (UniProt P28749)
inactive: [1] -0.084 | [2] -0.067 | [3] 0.048 | [4] 0.009 | [5] 0.021 | [6] -0.053 | [7] 0.212 | [8] 0.027 | [9] -0.007 | [10] 0.021

RASA2 (UniProt Q15283)
inactive: [1] -0.049 | [2] -0.037 | [3] -0.015 | [4] 0.063 | [5] 0 | [6] -0.071 | [7] 0.018 | [8] -0.011 | [9] 0.042 | [10] -0.031

RBX1 (UniProt P62877)
inactive: [1] -0.015 | [2] 0.343 | [3] 0.193 | [4] -0.064 | [5] -0.208 | [6] -0.162 | [7] -0.109 | [8] -0.055 | [9] 0.039 | [10] -0.062

RBM39 (UniProt Q14498)
inactive: [1] 0 | [2] 0.009 | [3] -0.027 | [4] 0.008 | [5] -0.007 | [6] 0.013 | [7] -0.049 | [8] -0.115 | [9] -0.034 | [10] 0.039

RFC2 (UniProt P35250)
inactive: [1] 0.005 | [2] -0.018 | [3] -0.027 | [4] -0.012 | [5] 0.062 | [6] -0.04 | [7] -0.014 | [8] 0.036 | [9] 0.014 | [10] -0.05

Taken from the results shown (2 entries):
RARS (UniProt P54136)
inactive: [1] 0.004 | [2] 0 | [3] -0.074 | [4] -0.017 | [5] 0.038 | [6] -0.017 | [7] 0.006 | [8] 0.049 | [9] 0.015 | [10] -0.023

RBL1 (UniProt P28749)
inactive: [1] -0.084 | [2] -0.067 | [3] 0.048 | [4] 0.009 | [5] 0.021 | [6] -0.053 | [7] 0.212 | [8] 0.027 | [9] -0.007 | [10] 0.021

(further entries)

RBM8A (UniProt Q9Y5S9)
inactive: [1] -0.005 | [2] 0.025 | [3] 0.023 | [4] 0.004 | [5] 0.067 | [6] 0.187 | [7] 0.051 | [8] -0.016 | [9] 0 | [10] 0.108

RCN1 (UniProt Q15293)
inactive: [1] -0.033 | [2] 0.012 | [3] 0.071 | [4] 0.023 | [5] -0.036 | [6] 0.148 | [7] -0.001 | [8] 0.046 | [9] -0.001 | [10] -0.019

RC3H1 (UniProt Q5TC82)
inactive: [1] 0.039 | [2] -0.088 | [3] -0.059 | [4] -0.035 | [5] 0.067 | [6] 0.083 | [7] 0.067 | [8] 0.006 | [9] -0.036 | [10] -0.021

RFK (UniProt Q969G6)
inactive: [1] -0.032 | [2] 0.062 | [3] 0.025 | [4] -0.094 | [5] -0.02 | [6] -0.043 | [7] -0.019 | [8] 0.091 | [9] 0.016 | [10] -0.052

RBM17 (UniProt Q96I25)
inactive: [1] -0.027 | [2] -0.011 | [3] -0.048 | [4] 0.003 | [5] 0.029 | [6] -0.014 | [7] -0.023 | [8] -0.006 | [9] -0.005 | [10] -0.027

RBM28 (UniProt Q9NW13)
inactive: [1] -0.002 | [2] -0.022 | [3] -0.019 | [4] -0.014 | [5] 0.015 | [6] -0.018 | [7] 0.006 | [8] 0.024 | [9] 0.006 | [10] -0.045

RARS2 (UniProt Q5T160)
inactive: [1] -0.055 | [2] -0.012 | [3] 0.002 | [4] -0.005 | [5] 0.014 | [6] -0.066 | [7] -0.022 | [8] 0.086 | [9] 0.02 | [10] -0.111

RGS14 (UniProt O43566)
inactive: [1] -0.184 | [2] 0.036 | [3] 0.029 | [4] 0.144 | [5] 0.126 | [6] -0.054 | [7] -0.089 | [8] 0.071 | [9] 0.02 | [10] -0.087

RBP5 (UniProt P82980)
inactive: [1] 0.054 | [2] 0.134 | [3] 0.028 | [4] 0.014 | [5] -0.02 | [6] -0.058 | [7] -0.095 | [8] -0.022 | [9] -0.043 | [10] -0.015

RBMX (UniProt P38159)
inactive: [1] 0.034 | [2] -0.079 | [3] -0.029 | [4] -0.052 | [5] -0.007 | [6] 0.042 | [7] 0.005 | [8] 0.014 | [9] 0.033 | [10] -0.021

RBM22 (UniProt Q9NW64)
inactive: [1] -0.045 | [2] 0.024 | [3] -0.072 | [4] -0.006 | [5] 0.057 | [6] -0.022 | [7] -0.036 | [8] -0.027 | [9] 0.01 | [10] 0.033

RBM7 (UniProt Q9Y580)
inactive: [1] 0.05 | [2] 0.006 | [3] -0.047 | [4] -0.03 | [5] 0.035 | [6] -0.036 | [7] 0.023 | [8] 0.058 | [9] -0.003 | [10] 0.022

RBM19 (UniProt Q9Y4C8)
inactive: [1] -0.018 | [2] -0.067 | [3] 0.082 | [4] -0.016 | [5] -0.079 | [6] 0.14 | [7] 0.009 | [8] -0.153 | [9] -0.019 | [10] -0.033

RCC2 (UniProt Q9P258)
inactive: [1] 0.015 | [2] -0.006 | [3] -0.006 | [4] -0.014 | [5] -0.017 | [6] 0.022 | [7] 0.013 | [8] -0.003 | [9] -0.01 | [10] 0.04

RBBP6 (UniProt Q7Z6E9)
inactive: [1] -0.044 | [2] 0.031 | [3] -0.009 | [4] 0.003 | [5] -0.043 | [6] -0.022 | [7] -0.017 | [8] -0.003 | [9] 0.027 | [10] 0.04

RELN (UniProt P78509)
inactive: [1] -0.086 | [2] -0.039 | [3] -0.005 | [4] -0.047 | [5] 0.002 | [6] -0.005 | [7] -0.032 | [8] 0.042 | [9] -0.101 | [10] 0.013

RFC1 (UniProt P35251)
inactive: [1] -0.007 | [2] -0.017 | [3] -0.05 | [4] 0.014 | [5] -0.026 | [6] -0.048 | [7] -0.063 | [8] -0.006 | [9] 0.01 | [10] 0.054

RER1 (UniProt O15258)
inactive: [1] 0.042 | [2] -0.041 | [3] 0.023 | [4] -0.022 | [5] -0.037 | [6] 0.013 | [7] 0.005 | [8] 0.018 | [9] -0.021 | [10] 0.017
